# Source: patent publication US20040009485A1, “Cellular arrays for the identification of altered gene expression” (priority 2002, published 2004)
# Further values from the same series stand in other lists.
# Tested on: LuxArray 1.04 E. coli strains (luxCDABE gene fusions)
# Assay: LuxArray 1.04 limonene stress of the reporter array in liquid culture
# Format: cell-based
# Details: 80% saturated limonene in LB
# Method: Microplates from −80° C. containing the LuxArray 1.04 E. coli strains were thawed and used to inoculate 100 μl LB medium supplemented with 100 μg/ml ampicillin in Costar#3595 flat bottomed 96-well microplates. Following overnight growth at 37° C., the plates were visually examined and any wells with little or no turbidity were recorded. Then these cultures were diluted by transfer of 15 μl to 135 μl LB medium in Costar #3595, flat bottom 96-well microplates and were moderately swirl shaken on an IKA Schuttler MTS 4 shaker at setting 400 for two hrs at 37° C. in a humidified box. Twenty μl of each these actively growing cultures were transferred to the corresponding well in sets of three microplates, one containing 80 μl of LB medium, another containing 80 μl of LB medium saturated with limonene at room temperature, and the third containing 40 μl of LB medium saturated with limonene and 40 μl of LB medium. An initial (zero time) reading was taken using an MLX microplate luminometer (Dynex) pre-warmed to 37° C. Then the plates were placed at 37° C. without shaking. Additional bioluminescent measurements were taken at 45, 90, and 135 minutes. To limit the number of microplates handled each day, LuxArray 1.04 microplates 1 to 5, microplates 6 to 10, microplates 11 to 15, and microplates […] were used on each of four different days.
# The data were normalized to correct for growth-inhibition caused by limonene on the basis of each individual day that data was collected. The bioluminescence (RLU) of each individual culture for each day of experimentation under each of the three conditions, were added to determine the daily array total RLU. These were used to find a daily normalization factor (DNF) as follows:
# DNF=Daily total array signal(time zero, LB control)/Daily total array signal(time x, condition y)
# Each measurement from the corresponding day, time point, and condition was multiplied by DNF to yield a normalized signal. The data from wells that were scored to have little or no growth were not used in further analysis. The normalized data were analyzed with GeneSpring (Silicon Genetics) software, which averaged the signal from each of the duplicate cultures for each reporter gene fusion.
# Thus, patterns of gene expression from the 80% saturated limonene in LB medium were further examined. […] These lists were examined and gene fusions with very low normalized RLU values (<0.012 RLU) at all conditions were eliminated. […] The designation of “>2X” is given for upregulation while “*” is listed if the expression was less than 2 fold increased. At 45 minutes, the expression of fourteen gene fusions was increased; none of these was increased 3 fold or higher. At 90 minutes, 37 gene fusions were induced; these included all but one of the gene fusions observed at 45 minutes. […] These were fusions of the luxCDABE reporter to the promoter regions of uhpT (3.8×), nirB (3.7×) and narK (3.6×). At 135 minutes, 39 gene fusions were induced, which included 13 fusions not observed at 45 or 90 minutes.
structure (smiles),measurement,setting,value
C=C(C)[C@H]1CC=C(C)CC1 [limonene],upregulation of gene fusion,"b0116 (lpdA) fusion, 45 minutes",>2X (The designation of “>2X” is given for upregulation)
same,upregulation of gene fusion,"b0116 (lpdA) fusion, 90 minutes",>2X (The designation of “>2X” is given for upregulation)
same,upregulation of gene fusion,"b0116 (lpdA) fusion, 135 minutes",* (“*” is listed if the expression was less than 2 fold increased)
same,upregulation of gene fusion,"b0123 (yacK) fusion, 90 minutes",* (“*” is listed if the expression was less than 2 fold increased)
same,upregulation of gene fusion,"b0123 (yacK) fusion, 135 minutes",>2X (The designation of “>2X” is given for upregulation)
same,upregulation of gene fusion,"b0168 (map) fusion, 45 minutes",>2X (The designation of “>2X” is given for upregulation)
same,upregulation of gene fusion,"b0168 (map) fusion, 90 minutes",>2X (The designation of “>2X” is given for upregulation)
same,upregulation of gene fusion,"b0168 (map) fusion, 135 minutes",* (“*” is listed if the expression was less than 2 fold increased)
same,upregulation of gene fusion,"b0386 (proC) fusion, 45 minutes",* (“*” is listed if the expression was less than 2 fold increased)
same,upregulation of gene fusion,"b0386 (proC) fusion, 90 minutes",* (“*” is listed if the expression was less than 2 fold increased)
same,upregulation of gene fusion,"b0386 (proC) fusion, 135 minutes",>2X (The designation of “>2X” is given for upregulation)
same,upregulation of gene fusion,"b0450 (glnK) fusion, 45 minutes",* (“*” is listed if the expression was less than 2 fold increased)
same,upregulation of gene fusion,"b0450 (glnK) fusion, 90 minutes",* (“*” is listed if the expression was less than 2 fold increased)
same,upregulation of gene fusion,"b0450 (glnK) fusion, 135 minutes",>2X (The designation of “>2X” is given for upregulation)
same,upregulation of gene fusion,"b0767 (ybhE) fusion, 45 minutes",>2X (The designation of “>2X” is given for upregulation)
same,upregulation of gene fusion,"b0767 (ybhE) fusion, 90 minutes",>2X (The designation of “>2X” is given for upregulation)
same,upregulation of gene fusion,"b0767 (ybhE) fusion, 135 minutes",>2X (The designation of “>2X” is given for upregulation)
same,upregulation of gene fusion,"b0774 (bioA) fusion, 45 minutes",* (“*” is listed if the expression was less than 2 fold increased)
same,upregulation of gene fusion,"b0774 (bioA) fusion, 90 minutes",* (“*” is listed if the expression was less than 2 fold increased)
same,upregulation of gene fusion,"b0774 (bioA) fusion, 135 minutes",>2X (The designation of “>2X” is given for upregulation)
same,upregulation of gene fusion,"b0842 fusion, 45 minutes",>2X (The designation of “>2X” is given for upregulation)
same,upregulation of gene fusion,"b0842 fusion, 90 minutes",>2X (The designation of “>2X” is given for upregulation)
same,upregulation of gene fusion,"b0842 fusion, 135 minutes",>2X (The designation of “>2X” is given for upregulation)
same,upregulation of gene fusion,"b1186 (nhaB) fusion, 45 minutes",>2X (The designation of “>2X” is given for upregulation)
same,upregulation of gene fusion,"b1186 (nhaB) fusion, 90 minutes",>2X (The designation of “>2X” is given for upregulation)
same,upregulation of gene fusion,"b1186 (nhaB) fusion, 135 minutes",>2X (The designation of “>2X” is given for upregulation)
same,upregulation of gene fusion,"b1413 (hrpA) fusion, 45 minutes",>2X (The designation of “>2X” is given for upregulation)
same,upregulation of gene fusion,"b1413 (hrpA) fusion, 90 minutes",>2X (The designation of “>2X” is given for upregulation)
same,upregulation of gene fusion,"b1413 (hrpA) fusion, 135 minutes",>2X (The designation of “>2X” is given for upregulation)
same,upregulation of gene fusion,"b1847 (yebF) fusion, 45 minutes",* (“*” is listed if the expression was less than 2 fold increased)
same,upregulation of gene fusion,"b1847 (yebF) fusion, 90 minutes",* (“*” is listed if the expression was less than 2 fold increased)
same,upregulation of gene fusion,"b1847 (yebF) fusion, 135 minutes",>2X (The designation of “>2X” is given for upregulation)
same,upregulation of gene fusion,"b1852 (zwf) fusion, 45 minutes",* (“*” is listed if the expression was less than 2 fold increased)
same,upregulation of gene fusion,"b1852 (zwf) fusion, 90 minutes",* (“*” is listed if the expression was less than 2 fold increased)
same,upregulation of gene fusion,"b1852 (zwf) fusion, 135 minutes",>2X (The designation of “>2X” is given for upregulation)
same,upregulation of gene fusion,"b2019 (hisG) fusion, 45 minutes",* (“*” is listed if the expression was less than 2 fold increased)
same,upregulation of gene fusion,"b2019 (hisG) fusion, 90 minutes",* (“*” is listed if the expression was less than 2 fold increased)
same,upregulation of gene fusion,"b2019 (hisG) fusion, 135 minutes",>2X (The designation of “>2X” is given for upregulation)
same,upregulation of gene fusion,"b2114 (metG) fusion, 45 minutes",* (“*” is listed if the expression was less than 2 fold increased)
same,upregulation of gene fusion,"b2114 (metG) fusion, 90 minutes",* (“*” is listed if the expression was less than 2 fold increased)
same,upregulation of gene fusion,"b2114 (metG) fusion, 135 minutes",>2X (The designation of “>2X” is given for upregulation)
same,upregulation of gene fusion,"b2428 fusion, 45 minutes",* (“*” is listed if the expression was less than 2 fold increased)
same,upregulation of gene fusion,"b2428 fusion, 90 minutes",* (“*” is listed if the expression was less than 2 fold increased)
same,upregulation of gene fusion,"b2428 fusion, 135 minutes",>2X (The designation of “>2X” is given for upregulation)
same,upregulation of gene fusion,"b3573 fusion, 45 minutes",* (“*” is listed if the expression was less than 2 fold increased)
same,upregulation of gene fusion,"b3573 fusion, 90 minutes",* (“*” is listed if the expression was less than 2 fold increased)
same,upregulation of gene fusion,"b3573 fusion, 135 minutes",>2X (The designation of “>2X” is given for upregulation)
same,upregulation of gene fusion,"b3779 (gppA) fusion, 45 minutes",* (“*” is listed if the expression was less than 2 fold increased)
same,upregulation of gene fusion,"b3779 (gppA) fusion, 90 minutes",* (“*” is listed if the expression was less than 2 fold increased)
same,upregulation of gene fusion,"b3779 (gppA) fusion, 135 minutes",>2X (The designation of “>2X” is given for upregulation)
same,upregulation of gene fusion,"b4226 (ppa) fusion, 45 minutes",* (“*” is listed if the expression was less than 2 fold increased)
same,upregulation of gene fusion,"b4226 (ppa) fusion, 90 minutes",* (“*” is listed if the expression was less than 2 fold increased)
same,upregulation of gene fusion,"b4226 (ppa) fusion, 135 minutes",>2X (The designation of “>2X” is given for upregulation)
